Measurements as given in publication doi:10.1101/832873.
Results are given in words; binding and its absence hold for the method and conditions named. In cells and extracts the contact can be indirect. These calls come from enrichment with a bait or labelling near it, and not all partners need be listed. Sequences can lack the tags named with a protein. Blank lines part the entries; values can stand above or below the molecule they belong to.

How the values were obtained:
[1] = biological target: T1, Dppa2-GFP (Developmental Pluripotency Associated 2, GFP-tagged) (UniProt Q9CWH0); test: affinity purification with mass spectrometry
T1 sequence: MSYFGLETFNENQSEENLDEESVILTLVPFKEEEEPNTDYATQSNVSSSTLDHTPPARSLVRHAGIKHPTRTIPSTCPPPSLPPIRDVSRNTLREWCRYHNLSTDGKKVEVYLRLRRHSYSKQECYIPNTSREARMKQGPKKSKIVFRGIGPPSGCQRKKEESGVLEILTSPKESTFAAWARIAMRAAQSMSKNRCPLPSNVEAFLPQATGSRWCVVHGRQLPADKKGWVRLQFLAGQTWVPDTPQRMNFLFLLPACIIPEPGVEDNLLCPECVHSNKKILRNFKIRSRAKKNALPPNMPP

[2] = biological target: T2, Dppa4-GFP (Developmental Pluripotency Associated 4, GFP-tagged) (UniProt Q8CCG4); test: affinity purification with mass spectrometry
T2 sequence: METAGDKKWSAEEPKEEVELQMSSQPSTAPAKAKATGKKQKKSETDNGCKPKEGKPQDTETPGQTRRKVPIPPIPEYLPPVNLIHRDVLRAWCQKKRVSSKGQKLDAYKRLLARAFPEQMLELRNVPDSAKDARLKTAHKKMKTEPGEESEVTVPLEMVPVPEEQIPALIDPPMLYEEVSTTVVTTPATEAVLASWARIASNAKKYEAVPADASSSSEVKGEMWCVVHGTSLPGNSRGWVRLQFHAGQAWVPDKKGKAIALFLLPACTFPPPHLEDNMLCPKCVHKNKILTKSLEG

- binding [1]: binds
- binding [2]: binds
Molecule: Zscan4 (mouse (endogenous in E14 ESCs))

- binding [1]: binds
B1: Dppa4 (Developmental Pluripotency Associated 4), endogenous (protein, UniProt Q8CCG4 1-296)
chain: T2 sequence

- binding [2]: binds
B2: Dppa2 (Developmental Pluripotency Associated 2), endogenous (protein, UniProt Q9CWH0 1-301)
chain: T1 sequence
